Laboratory results reported in the supplement of paper PMC10849652.
Some of the results follow.

Chains of the proteins cited; added tags and fusions are not shown. Lines headed by an entry give the natural chain unless they say otherwise; changes in a name come on top.
UniProt Q13948: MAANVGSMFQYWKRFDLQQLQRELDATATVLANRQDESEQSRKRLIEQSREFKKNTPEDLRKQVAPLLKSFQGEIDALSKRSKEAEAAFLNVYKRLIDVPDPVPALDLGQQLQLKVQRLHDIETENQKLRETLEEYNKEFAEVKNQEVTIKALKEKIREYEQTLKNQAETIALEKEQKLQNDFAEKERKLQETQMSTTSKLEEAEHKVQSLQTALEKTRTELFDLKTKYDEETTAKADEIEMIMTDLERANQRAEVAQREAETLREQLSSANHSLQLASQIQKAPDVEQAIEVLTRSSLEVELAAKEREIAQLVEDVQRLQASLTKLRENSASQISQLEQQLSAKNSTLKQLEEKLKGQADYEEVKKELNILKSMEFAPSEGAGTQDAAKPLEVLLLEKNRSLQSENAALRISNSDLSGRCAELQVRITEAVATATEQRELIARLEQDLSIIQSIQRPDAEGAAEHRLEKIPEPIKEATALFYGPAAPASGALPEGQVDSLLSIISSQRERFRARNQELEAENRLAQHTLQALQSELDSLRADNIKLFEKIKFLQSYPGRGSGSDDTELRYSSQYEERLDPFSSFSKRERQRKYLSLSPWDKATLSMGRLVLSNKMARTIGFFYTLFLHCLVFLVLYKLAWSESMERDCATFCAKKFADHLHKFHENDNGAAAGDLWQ
UniProt Q7L1T6: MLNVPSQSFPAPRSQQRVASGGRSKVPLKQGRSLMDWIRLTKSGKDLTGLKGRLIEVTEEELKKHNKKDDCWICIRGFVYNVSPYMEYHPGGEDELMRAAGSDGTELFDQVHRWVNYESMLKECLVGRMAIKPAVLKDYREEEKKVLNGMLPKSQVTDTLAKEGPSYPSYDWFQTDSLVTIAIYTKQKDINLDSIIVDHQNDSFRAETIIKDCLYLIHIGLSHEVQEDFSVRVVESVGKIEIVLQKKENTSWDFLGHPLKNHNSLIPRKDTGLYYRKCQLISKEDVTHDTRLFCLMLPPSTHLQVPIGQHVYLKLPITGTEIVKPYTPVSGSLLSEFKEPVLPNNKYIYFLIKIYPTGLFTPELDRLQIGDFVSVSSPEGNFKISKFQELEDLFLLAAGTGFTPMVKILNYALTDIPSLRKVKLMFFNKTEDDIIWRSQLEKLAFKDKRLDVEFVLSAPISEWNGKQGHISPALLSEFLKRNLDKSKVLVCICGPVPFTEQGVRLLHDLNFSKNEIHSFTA
UniProt E9PJD7, whole entry, looked up: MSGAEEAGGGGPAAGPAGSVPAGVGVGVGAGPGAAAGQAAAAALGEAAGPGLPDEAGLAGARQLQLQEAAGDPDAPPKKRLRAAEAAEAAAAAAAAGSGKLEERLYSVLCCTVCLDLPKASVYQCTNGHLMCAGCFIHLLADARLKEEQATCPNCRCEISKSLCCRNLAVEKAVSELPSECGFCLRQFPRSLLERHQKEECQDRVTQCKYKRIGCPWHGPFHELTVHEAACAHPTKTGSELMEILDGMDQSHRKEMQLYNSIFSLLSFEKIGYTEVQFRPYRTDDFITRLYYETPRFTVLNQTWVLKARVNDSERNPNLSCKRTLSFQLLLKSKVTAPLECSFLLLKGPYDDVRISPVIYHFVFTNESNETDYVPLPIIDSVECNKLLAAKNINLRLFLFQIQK
UniProt P61962: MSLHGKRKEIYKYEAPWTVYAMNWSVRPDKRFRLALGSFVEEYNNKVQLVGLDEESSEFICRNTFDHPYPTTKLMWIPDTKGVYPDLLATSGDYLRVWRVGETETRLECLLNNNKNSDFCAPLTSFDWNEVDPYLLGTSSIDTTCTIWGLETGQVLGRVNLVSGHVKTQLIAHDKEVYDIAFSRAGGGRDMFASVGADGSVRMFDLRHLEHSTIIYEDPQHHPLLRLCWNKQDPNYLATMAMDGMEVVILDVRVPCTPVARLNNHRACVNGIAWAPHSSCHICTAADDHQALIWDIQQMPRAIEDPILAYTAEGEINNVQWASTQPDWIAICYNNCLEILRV
UniProt P17812: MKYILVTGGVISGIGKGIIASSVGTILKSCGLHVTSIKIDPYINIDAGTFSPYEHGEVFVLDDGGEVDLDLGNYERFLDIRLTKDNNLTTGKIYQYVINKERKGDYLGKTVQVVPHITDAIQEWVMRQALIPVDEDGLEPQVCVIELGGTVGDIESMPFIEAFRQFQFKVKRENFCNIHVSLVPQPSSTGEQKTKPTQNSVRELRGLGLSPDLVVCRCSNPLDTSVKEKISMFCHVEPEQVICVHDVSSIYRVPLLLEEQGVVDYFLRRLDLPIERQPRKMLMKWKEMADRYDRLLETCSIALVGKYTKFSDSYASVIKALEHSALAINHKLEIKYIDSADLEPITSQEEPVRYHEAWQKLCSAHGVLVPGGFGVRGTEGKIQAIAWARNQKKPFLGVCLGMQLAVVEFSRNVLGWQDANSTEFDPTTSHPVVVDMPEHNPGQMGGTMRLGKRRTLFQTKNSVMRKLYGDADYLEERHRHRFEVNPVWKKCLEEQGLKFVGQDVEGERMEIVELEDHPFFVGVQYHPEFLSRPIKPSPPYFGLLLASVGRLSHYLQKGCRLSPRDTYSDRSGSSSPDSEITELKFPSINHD
UniProt O60888: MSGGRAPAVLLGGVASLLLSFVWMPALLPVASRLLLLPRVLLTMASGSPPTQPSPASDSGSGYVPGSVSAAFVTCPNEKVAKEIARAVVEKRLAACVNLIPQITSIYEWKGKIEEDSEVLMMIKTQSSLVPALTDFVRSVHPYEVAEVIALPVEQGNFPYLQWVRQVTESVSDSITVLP
UniProt Q13617, whole entry, looked up: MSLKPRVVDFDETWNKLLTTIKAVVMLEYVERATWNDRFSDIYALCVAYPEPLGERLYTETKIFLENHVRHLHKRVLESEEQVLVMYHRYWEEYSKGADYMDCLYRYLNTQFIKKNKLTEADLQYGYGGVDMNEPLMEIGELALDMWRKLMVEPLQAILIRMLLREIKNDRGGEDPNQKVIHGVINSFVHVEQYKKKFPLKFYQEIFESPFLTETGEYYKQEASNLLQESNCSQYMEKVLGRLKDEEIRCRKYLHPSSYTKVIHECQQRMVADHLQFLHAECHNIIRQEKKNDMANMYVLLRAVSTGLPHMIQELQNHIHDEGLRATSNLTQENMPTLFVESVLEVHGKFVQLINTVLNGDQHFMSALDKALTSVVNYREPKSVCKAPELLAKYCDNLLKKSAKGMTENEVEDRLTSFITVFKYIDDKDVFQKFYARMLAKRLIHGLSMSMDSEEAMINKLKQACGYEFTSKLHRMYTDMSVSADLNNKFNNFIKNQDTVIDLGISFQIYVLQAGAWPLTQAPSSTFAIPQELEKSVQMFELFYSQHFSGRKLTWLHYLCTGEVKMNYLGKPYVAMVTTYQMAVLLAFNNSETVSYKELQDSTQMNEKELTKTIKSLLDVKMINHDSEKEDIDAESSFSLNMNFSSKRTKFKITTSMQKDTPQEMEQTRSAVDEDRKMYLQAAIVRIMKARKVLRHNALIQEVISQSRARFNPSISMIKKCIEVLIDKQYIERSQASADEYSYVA
UniProt P01034: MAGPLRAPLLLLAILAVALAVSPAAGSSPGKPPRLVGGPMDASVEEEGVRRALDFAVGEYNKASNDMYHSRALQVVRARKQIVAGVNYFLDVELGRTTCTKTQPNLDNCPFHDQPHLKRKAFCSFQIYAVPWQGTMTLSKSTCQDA
UniProt Q05048: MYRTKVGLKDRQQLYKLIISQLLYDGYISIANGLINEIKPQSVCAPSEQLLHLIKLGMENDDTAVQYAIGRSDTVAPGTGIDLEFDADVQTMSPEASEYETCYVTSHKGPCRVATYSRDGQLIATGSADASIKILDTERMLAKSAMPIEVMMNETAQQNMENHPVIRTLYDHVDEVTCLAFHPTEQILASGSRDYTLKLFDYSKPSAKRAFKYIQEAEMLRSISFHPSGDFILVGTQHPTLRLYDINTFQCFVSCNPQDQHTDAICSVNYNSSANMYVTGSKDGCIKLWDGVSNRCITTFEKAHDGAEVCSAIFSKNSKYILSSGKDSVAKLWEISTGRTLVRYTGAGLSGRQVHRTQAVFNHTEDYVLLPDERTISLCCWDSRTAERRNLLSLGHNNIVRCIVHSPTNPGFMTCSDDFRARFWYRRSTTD
UniProt Q1MSJ5: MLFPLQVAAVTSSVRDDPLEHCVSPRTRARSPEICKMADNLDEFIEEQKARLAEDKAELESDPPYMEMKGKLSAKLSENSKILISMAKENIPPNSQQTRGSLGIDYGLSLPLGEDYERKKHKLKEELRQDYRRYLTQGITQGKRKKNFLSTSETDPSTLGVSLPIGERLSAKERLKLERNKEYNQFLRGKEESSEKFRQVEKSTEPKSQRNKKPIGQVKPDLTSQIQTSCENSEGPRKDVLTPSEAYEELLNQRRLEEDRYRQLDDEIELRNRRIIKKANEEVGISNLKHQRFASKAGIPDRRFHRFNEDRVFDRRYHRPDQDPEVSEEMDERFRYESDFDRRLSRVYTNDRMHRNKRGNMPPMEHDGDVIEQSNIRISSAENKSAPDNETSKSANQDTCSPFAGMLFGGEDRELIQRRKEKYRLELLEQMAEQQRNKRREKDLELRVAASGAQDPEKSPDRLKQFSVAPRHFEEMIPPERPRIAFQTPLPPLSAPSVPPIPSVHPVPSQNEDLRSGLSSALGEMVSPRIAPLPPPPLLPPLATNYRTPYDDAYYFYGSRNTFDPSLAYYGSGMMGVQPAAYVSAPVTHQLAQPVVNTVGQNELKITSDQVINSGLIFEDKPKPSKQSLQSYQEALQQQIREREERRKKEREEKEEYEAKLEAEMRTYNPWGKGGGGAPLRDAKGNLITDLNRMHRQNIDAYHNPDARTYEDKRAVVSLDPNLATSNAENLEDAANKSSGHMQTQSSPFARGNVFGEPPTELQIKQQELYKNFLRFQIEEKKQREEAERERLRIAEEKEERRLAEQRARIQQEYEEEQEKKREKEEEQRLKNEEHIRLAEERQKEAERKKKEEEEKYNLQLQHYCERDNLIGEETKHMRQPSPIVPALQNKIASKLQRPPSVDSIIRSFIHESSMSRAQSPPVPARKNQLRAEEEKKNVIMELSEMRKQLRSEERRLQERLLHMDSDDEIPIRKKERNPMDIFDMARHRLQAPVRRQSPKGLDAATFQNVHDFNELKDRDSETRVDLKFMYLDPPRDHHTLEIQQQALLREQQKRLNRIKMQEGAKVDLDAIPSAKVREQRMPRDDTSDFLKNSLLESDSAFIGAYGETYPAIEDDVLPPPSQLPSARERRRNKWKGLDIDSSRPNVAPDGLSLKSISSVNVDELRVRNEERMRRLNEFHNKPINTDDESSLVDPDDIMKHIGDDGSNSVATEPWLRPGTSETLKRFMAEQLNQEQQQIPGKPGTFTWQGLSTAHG
UniProt Q66K64, whole entry, looked up: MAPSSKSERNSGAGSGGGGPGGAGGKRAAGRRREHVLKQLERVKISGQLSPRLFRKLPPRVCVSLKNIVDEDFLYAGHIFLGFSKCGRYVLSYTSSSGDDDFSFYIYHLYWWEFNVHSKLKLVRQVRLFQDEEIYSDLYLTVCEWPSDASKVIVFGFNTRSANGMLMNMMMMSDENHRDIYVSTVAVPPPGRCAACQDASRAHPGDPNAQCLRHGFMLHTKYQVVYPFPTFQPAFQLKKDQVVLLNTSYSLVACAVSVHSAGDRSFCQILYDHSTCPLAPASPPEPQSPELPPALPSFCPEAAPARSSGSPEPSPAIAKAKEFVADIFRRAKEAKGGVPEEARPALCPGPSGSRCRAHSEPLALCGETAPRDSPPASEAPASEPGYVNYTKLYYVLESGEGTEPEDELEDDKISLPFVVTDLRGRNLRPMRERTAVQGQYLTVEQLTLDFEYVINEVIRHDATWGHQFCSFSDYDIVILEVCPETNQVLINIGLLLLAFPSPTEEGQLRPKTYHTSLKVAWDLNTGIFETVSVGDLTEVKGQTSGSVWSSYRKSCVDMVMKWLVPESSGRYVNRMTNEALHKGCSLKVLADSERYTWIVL
UniProt Q14247: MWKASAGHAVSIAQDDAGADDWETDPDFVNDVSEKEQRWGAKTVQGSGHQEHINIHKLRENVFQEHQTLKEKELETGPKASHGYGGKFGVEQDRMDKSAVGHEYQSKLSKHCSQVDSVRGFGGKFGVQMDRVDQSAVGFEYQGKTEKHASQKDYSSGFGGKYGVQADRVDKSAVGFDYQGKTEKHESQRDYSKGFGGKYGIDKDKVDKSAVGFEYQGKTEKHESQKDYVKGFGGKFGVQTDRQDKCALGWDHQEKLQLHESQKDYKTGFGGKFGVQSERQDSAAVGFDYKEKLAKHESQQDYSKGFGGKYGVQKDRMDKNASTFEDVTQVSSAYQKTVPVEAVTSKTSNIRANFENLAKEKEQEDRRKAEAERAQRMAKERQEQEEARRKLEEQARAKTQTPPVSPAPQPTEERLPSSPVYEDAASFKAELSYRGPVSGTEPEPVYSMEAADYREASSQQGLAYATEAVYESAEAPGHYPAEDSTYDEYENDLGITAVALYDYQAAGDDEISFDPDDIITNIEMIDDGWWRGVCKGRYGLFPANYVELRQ

compound: CC1=C(C=C(C=C1)NC(=O)C2=CC(=CC=C2)N(C)C)NC(=O)C3=CC=C(C=C3)O; assay: log2 fold change, soluble protein after heating vs DMSO (PISA); higher = thermal stabilisation; K562 cells, 10 uM, 30 min; active = over 0.2 and 3.5 SD of the protein, either way, in both replicates (recomputed)
Method in brief: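 Soluble protein was quantified by TMTpro 16plex LC-MS/MS after channel sums were equalised. It was obtained as the supernatant after 21,000xg for 90 min from pooled aliquots of K562 cells (2×10^6 cells/mL, 10 μM compound, 30 min) heated for 3 min across 48°C-58°C and extracted in PBS with 0.5% NP-40 at 4°C. Thermal stability values are relative to control samples and come from duplicates. They are given as log2 fold changes.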

Row | Target | log2 fold change
1 | CT47A1 (UniProt Q5JQC4) | inactive: -0.003
2 | CWC27 (UniProt Q6UX04) | inactive: -0.035
3 | CYB5B, A0A499FJ32 | inactive: -0.027
4 | CUX1 isoform 2 (UniProt Q13948) | inactive: 0.007
5 | CYB5R4 (UniProt Q7L1T6) | inactive: -0.006
6 | CYHR1 (UniProt E9PJD7) | inactive: 0.102
7 | DCAF7 (UniProt P61962) | inactive: -0.005
8 | CT45A10 (UniProt P0DMU9) | inactive: 0.021
9 | CTPS1 (UniProt P17812) | inactive: 0.02
10 | CTH (UniProt P32929) | inactive: -0.011
11 | CTNNA2 (UniProt P26232) | inactive: 0.04
12 | CUL1 (UniProt Q13616) | inactive: -0.005
13 | CTSL (UniProt P07711) | inactive: 0.014
14 | CTNNB1 (UniProt P35222) | inactive: -0.018
15 | CYB5R3 isoform 3 (UniProt P00387) | inactive: -0.003
16 | CUTA isoform 2 (UniProt O60888) | inactive: -0.011
17 | CTIF isoform 2 (UniProt O43310) | inactive: -0.024
18 | CUL3 (UniProt Q13618) | inactive: 0
19 | CUL2 isoform 2 (UniProt Q13617) | inactive: -0.001
20 | CST3 (UniProt P01034) | inactive: 0

Quoted at random: 2 entries already listed.
Row | Target | log2 fold change
20 | CST3 (UniProt P01034) | inactive: 0
2 | CWC27 (UniProt Q6UX04) | inactive: -0.035

(list continues)

Row | Target | log2 fold change
21 | DAG1 (UniProt Q14118) | inactive: -0.019
22 | D2HGDH (UniProt Q8N465) | inactive: -0.101
23 | CTSV (UniProt O60911) | inactive: 0.019
24 | CSTF1 (UniProt Q05048) | inactive: -0.052
25 | CYB5R1 (UniProt Q9UHQ9) | inactive: 0.003
26 | CTBP1 (UniProt Q13363) | inactive: -0.028
27 | CYFIP2 (UniProt Q96F07) | inactive: -0.022
28 | CUEDC2 (UniProt Q9H467) | inactive: -0.043
29 | CXorf56 (UniProt Q9H5V9) | inactive: -0.034
30 | CSPP1 (UniProt Q1MSJ5) | inactive: -0.03
31 | DCAF15 (UniProt Q66K64) | inactive: 0.034
32 | CSTF3 (UniProt Q12996) | inactive: 0.014
33 | CYFIP1 (UniProt Q7L576) | inactive: 0.005
34 | DCTN3 (UniProt O75935) | inactive: -0.04
35 | DBR1 (UniProt Q9UK59) | inactive: 0.028
36 | CYC1 (UniProt P08574) | inactive: -0.021
37 | CTU2 (UniProt Q2VPK5) | inactive: -0.005
38 | CTBS (UniProt Q01459) | inactive: 0.014
39 | DCAF10 (UniProt Q5QP82) | inactive: 0.121
40 | CTTN (UniProt Q14247) | inactive: 0.006
